Laboratory results reported in paper PMC10174191.
No constants are given. Whether binding was seen depends on the method and setting. In cells and extracts the contact can be indirect. Some results given as binding are weak or reduced against the parent protein; the word gives no strength. Where a sequence is shown, tags or fusion partners need not be part of it.

By UniProt entry, the sequences of proteins in these tests, tags left out. Residues count along the entry.
UniProt Q9QUK6, residues 26-835: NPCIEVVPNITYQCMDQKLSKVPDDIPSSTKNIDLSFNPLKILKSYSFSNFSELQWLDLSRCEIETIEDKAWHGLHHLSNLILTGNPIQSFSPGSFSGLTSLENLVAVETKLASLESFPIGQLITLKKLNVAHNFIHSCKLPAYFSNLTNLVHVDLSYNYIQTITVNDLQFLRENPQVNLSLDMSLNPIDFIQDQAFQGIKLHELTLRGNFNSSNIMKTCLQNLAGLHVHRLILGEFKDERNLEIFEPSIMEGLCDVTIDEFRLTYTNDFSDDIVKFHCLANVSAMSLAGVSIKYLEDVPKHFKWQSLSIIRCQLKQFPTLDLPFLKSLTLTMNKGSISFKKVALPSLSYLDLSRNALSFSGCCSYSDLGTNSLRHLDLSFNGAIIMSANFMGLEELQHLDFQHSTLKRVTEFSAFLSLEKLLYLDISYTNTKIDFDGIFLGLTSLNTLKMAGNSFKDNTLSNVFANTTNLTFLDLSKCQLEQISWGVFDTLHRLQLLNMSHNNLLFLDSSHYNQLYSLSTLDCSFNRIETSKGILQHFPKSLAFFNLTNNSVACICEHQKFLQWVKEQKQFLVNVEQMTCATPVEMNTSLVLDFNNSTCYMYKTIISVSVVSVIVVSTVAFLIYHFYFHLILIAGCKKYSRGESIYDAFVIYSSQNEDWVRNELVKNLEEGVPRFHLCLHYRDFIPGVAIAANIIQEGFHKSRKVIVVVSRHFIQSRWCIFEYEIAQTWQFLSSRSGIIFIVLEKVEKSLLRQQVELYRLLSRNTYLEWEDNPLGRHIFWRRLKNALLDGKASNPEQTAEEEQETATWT

Tests used:
Test in all cases: co-IP; HEK293T cotransfected with ZNRF1-GFP and Flag-tagged TLR1, TLR4, TLR7 or TLR9 for 36 h; lysates immunoprecipitated with anti-M2-Flag antibody, immunoblotting
Flag-tagged TLR1 = molecular target: T1, Flag-tagged TLR1 (UniProt Q9EPQ1)
T1 sequence: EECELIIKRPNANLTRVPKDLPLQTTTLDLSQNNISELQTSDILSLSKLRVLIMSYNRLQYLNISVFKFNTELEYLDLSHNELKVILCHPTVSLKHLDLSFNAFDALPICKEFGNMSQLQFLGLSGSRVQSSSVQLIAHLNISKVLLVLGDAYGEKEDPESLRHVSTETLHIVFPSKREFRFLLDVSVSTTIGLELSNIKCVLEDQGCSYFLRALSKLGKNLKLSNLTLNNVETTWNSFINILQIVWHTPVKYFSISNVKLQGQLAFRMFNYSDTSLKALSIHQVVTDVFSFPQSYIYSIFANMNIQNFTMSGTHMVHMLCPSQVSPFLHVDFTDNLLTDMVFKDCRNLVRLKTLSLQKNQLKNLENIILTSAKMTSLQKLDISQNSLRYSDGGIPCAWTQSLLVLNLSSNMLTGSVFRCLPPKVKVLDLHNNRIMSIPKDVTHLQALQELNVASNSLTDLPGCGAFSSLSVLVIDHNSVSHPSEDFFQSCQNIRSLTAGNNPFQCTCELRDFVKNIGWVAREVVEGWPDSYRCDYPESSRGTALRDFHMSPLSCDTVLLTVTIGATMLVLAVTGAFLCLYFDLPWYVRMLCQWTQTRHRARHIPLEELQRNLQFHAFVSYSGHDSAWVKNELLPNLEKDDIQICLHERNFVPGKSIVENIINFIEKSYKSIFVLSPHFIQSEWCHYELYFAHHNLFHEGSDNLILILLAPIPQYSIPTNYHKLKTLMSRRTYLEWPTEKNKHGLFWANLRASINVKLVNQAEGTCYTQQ

Flag-tagged TLR4 = Flag-tagged TLR4 (UniProt Q9QUK6)
Flag-tagged TLR7 = molecular target: T2, Flag-tagged TLR7 (UniProt P58681)
T2 sequence: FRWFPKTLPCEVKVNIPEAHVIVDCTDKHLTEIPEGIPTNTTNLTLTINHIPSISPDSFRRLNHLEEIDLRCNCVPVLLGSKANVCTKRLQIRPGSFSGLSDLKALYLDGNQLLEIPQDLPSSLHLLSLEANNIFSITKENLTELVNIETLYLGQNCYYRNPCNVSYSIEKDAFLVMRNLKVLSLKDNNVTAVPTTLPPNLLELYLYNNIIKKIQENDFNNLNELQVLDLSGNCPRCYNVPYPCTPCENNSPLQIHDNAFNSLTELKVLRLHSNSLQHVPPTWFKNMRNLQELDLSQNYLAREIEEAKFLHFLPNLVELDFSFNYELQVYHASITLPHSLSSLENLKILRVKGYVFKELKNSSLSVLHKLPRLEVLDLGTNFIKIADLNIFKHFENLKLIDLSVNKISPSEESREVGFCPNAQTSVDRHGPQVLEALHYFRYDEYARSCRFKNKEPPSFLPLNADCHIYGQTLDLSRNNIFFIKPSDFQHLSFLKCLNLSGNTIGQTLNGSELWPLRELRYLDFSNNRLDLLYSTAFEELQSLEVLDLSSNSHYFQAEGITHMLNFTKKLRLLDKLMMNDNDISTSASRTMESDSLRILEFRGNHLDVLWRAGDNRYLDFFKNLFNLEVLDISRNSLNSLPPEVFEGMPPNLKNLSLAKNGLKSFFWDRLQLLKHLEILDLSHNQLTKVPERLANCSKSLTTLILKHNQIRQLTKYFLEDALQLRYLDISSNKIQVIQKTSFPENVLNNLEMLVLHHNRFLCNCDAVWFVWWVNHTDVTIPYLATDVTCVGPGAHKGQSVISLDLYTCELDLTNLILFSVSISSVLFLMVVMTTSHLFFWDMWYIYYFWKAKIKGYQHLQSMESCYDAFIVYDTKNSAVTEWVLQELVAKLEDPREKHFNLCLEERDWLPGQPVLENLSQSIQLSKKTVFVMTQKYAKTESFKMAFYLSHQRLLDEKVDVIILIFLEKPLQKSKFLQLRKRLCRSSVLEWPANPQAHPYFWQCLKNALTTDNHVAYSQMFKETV

Flag-tagged TLR9 = molecular target: T3, Flag-tagged TLR9 (UniProt Q9EQU3)
T3 sequence: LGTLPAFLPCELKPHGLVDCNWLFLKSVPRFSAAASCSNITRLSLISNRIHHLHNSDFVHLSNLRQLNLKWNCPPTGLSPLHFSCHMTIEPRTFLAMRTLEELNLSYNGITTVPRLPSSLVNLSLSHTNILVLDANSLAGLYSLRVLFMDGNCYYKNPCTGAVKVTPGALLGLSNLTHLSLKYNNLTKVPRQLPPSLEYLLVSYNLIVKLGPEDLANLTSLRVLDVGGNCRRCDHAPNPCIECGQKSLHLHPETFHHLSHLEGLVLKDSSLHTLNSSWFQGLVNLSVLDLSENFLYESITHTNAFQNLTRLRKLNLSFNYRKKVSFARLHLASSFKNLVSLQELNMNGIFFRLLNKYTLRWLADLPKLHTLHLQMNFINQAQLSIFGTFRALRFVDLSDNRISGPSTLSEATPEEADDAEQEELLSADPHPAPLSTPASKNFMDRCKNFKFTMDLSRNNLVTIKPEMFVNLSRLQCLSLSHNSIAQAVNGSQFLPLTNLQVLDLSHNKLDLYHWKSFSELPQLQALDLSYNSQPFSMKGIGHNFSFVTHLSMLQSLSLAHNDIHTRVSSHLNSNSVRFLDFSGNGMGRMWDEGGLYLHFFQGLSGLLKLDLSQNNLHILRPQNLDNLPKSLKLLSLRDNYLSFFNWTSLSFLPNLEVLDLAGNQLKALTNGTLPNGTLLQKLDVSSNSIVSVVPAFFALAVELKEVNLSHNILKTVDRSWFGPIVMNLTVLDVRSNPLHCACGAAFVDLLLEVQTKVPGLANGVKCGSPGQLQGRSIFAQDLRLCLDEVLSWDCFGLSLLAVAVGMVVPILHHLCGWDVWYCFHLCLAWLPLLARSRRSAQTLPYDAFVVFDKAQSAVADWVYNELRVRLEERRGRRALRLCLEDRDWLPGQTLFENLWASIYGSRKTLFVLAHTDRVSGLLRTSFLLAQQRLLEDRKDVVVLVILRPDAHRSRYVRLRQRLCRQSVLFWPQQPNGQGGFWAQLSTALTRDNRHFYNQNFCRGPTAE

- binding (Flag-tagged TLR1): no binding
- binding (Flag-tagged TLR4): no binding
- binding (Flag-tagged TLR7): binds
- binding (Flag-tagged TLR9): binds
B1: ZNRF1-GFP (enzyme, UniProt Q91V17 1-227)
chain: MGGKQSTAARSRGPFPGVSTDDSAVPPPGGAPHFGHYRTGGGAMGLRSRSVSSVAGMGMDPSTAGGVPFSLYTPASRGTGDSERAPGGGGSTSDSTYAHGNGYQETGGGHHRDGMLYLGSRASLADALPLHIAPRWFSSHSGFKCPICSKSVASDEMEMHFIMCLSKPRLSYNDDVLTKDAGECVICLEELLQGDTIARLPCLCIYHKSCIDSWFEVNRSCPEHPAD
